Literature values, collected in patent publication US9045484B2, “Inhibitors of the BMP signaling pathway” (The Brigham and Women's Hospital, Inc., priority 2008, dated 2015).
At least one compound was matched to its structure with a doubt left.

Test system: BMP type I receptors, ALK2, ALK3, and ALK6
Details: Yu et al. Nat. Chem. Biol. 2008; cited from earlier work

For `c1cc(-c2cnn3cc(-c4ccc(OCCN5CCCCC5)cc4)cnc23)ccn1` [Dorsomorphin, reference compound], the “inhibition of BMP type I receptors ALK2, ALK3, ALK6” value is given as “inhibits ALK2 and ALK3 to a greater extent than it does ALK6”.
